Measurements as given in the supplement of paper PMC10849652.
Some of the results follow.

Amino acid sequences for entries named in this document (tags omitted). A change or cut given only in a name is not applied to a line headed by its entry.
UniProt Q15293: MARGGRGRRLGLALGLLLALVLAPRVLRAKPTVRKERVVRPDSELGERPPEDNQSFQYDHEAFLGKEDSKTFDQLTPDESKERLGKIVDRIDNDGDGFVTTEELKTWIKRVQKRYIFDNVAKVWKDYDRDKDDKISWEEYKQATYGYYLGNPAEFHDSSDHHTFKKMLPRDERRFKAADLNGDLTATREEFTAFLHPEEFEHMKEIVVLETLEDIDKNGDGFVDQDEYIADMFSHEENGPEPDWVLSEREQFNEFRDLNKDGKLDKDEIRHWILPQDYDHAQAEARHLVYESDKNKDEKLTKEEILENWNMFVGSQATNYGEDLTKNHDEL
UniProt Q96EV2: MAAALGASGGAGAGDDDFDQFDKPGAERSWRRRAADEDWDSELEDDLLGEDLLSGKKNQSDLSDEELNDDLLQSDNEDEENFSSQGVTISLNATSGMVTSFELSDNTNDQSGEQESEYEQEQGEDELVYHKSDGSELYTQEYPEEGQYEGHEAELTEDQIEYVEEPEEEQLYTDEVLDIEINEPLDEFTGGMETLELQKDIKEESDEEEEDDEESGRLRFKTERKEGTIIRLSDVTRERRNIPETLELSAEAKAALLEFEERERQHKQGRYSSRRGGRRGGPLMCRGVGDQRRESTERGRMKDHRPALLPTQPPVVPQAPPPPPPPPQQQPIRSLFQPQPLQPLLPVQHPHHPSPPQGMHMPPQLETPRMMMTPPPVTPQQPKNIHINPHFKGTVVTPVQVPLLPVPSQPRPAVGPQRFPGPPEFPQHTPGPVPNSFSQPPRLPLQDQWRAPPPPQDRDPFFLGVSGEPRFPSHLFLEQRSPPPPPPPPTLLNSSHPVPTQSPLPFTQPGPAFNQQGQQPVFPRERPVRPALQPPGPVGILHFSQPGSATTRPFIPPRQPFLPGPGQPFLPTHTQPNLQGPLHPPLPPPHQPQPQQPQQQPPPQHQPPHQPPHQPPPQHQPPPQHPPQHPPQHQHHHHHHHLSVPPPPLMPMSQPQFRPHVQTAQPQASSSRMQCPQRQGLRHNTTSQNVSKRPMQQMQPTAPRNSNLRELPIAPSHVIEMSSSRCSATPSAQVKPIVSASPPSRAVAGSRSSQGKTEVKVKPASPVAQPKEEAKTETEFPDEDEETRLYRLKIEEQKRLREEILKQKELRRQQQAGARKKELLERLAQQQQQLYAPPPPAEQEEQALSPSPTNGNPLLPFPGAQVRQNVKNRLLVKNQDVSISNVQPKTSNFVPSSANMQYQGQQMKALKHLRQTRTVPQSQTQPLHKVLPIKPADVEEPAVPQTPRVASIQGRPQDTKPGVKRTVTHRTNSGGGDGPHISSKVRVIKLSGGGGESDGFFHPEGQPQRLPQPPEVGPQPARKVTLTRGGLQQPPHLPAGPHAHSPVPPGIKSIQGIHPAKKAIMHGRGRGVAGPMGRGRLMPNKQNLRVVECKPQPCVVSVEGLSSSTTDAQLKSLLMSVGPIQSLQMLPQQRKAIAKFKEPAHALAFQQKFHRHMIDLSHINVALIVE
UniProt Q2KHR2: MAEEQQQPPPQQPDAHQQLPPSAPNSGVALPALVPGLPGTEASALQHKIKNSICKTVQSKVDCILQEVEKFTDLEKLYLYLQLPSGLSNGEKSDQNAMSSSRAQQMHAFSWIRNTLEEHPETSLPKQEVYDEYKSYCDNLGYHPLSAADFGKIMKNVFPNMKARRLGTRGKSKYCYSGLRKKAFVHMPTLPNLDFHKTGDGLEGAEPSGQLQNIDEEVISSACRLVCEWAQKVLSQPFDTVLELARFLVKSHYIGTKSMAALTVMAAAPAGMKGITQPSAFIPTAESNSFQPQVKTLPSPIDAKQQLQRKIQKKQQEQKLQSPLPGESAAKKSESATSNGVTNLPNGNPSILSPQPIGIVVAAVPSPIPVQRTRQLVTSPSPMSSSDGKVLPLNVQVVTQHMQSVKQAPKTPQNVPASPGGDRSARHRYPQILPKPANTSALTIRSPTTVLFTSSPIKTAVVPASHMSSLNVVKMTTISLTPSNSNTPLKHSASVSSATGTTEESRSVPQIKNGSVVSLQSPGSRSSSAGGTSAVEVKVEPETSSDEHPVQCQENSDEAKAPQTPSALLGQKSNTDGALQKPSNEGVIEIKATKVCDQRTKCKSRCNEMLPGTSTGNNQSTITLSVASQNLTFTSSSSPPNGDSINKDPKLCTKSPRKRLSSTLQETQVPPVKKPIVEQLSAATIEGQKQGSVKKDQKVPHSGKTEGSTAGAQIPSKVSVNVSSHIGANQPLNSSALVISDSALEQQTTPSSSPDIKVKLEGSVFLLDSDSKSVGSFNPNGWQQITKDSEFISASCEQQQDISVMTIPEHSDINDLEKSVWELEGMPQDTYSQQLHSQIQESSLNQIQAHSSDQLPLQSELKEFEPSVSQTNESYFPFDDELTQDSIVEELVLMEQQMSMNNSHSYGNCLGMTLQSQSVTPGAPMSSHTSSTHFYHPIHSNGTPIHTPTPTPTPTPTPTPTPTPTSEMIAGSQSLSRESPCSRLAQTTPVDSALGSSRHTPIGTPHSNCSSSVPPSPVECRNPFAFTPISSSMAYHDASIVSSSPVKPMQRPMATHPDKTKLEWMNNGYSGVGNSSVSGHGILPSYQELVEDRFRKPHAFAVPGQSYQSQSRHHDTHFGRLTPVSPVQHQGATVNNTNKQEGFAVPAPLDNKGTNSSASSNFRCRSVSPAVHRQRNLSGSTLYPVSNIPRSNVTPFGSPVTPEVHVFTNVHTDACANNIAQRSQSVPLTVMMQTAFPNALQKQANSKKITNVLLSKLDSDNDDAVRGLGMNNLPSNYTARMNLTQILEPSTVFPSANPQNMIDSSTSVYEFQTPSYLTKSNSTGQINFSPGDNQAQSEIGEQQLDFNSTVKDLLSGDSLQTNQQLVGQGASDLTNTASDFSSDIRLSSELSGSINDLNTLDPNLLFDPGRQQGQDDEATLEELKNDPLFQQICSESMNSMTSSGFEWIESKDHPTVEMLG
UniProt O94761: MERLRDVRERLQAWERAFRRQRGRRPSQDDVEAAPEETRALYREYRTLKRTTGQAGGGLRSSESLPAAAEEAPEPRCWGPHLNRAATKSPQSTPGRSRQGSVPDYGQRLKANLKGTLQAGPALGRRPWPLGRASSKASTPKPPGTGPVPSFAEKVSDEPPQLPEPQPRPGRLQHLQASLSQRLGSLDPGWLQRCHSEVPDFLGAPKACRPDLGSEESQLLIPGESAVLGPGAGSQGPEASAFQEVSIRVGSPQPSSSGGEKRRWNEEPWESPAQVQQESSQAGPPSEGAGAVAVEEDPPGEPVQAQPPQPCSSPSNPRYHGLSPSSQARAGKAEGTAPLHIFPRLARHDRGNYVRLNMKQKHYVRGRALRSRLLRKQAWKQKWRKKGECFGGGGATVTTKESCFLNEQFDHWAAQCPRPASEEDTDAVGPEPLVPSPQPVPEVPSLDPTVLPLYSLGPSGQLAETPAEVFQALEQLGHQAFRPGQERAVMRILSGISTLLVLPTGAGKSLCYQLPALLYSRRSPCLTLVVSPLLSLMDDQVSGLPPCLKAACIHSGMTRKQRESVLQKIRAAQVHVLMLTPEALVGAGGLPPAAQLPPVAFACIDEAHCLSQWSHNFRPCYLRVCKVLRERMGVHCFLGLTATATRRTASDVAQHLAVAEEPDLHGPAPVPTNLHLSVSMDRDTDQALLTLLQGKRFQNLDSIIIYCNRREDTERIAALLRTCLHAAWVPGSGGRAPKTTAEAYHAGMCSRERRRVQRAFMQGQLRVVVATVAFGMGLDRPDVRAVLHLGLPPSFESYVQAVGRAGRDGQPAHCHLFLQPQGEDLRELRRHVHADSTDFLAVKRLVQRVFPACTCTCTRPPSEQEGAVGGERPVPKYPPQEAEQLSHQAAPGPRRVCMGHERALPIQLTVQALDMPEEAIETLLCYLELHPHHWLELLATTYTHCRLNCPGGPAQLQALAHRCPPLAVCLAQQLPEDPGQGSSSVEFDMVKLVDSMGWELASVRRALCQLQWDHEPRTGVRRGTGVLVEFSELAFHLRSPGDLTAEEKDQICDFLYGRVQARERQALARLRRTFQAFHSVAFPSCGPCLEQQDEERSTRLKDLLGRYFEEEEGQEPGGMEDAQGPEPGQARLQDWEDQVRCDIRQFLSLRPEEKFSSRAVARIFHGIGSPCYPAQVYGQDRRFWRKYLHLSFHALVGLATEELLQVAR
UniProt Q96I25: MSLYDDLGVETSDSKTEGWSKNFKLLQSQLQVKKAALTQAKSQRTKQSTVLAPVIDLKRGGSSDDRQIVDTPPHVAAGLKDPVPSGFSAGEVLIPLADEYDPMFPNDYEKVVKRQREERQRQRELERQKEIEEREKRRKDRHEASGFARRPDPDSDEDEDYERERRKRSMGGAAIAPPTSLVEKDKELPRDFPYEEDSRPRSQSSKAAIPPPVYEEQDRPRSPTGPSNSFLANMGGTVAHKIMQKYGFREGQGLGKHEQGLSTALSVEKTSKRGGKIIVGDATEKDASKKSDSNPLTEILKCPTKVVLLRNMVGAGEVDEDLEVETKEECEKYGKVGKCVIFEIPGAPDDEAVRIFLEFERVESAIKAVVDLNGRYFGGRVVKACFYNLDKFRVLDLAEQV
UniProt Q5T160: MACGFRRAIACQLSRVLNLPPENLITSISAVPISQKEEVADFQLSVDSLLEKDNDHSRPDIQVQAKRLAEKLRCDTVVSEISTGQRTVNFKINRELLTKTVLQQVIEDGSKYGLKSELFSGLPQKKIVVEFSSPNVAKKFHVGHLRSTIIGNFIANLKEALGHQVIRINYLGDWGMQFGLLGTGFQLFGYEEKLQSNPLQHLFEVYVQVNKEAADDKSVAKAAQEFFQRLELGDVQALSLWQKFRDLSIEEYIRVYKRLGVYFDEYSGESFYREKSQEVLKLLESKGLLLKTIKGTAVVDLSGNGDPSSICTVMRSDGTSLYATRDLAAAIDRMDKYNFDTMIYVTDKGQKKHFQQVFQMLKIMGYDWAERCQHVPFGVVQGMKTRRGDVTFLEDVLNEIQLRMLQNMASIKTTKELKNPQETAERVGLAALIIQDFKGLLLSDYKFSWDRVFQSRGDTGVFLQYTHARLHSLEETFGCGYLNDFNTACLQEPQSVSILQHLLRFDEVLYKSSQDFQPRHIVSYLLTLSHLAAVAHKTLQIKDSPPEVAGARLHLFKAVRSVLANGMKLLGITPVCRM
UniProt Q96PM5: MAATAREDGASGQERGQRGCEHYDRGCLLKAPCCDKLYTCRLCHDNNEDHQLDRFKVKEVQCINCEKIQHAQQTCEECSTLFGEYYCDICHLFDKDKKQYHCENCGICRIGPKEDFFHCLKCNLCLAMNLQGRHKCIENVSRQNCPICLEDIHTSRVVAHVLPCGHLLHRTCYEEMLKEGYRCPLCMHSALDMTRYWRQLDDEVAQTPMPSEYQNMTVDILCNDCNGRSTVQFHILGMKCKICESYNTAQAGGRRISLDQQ
UniProt Q02094: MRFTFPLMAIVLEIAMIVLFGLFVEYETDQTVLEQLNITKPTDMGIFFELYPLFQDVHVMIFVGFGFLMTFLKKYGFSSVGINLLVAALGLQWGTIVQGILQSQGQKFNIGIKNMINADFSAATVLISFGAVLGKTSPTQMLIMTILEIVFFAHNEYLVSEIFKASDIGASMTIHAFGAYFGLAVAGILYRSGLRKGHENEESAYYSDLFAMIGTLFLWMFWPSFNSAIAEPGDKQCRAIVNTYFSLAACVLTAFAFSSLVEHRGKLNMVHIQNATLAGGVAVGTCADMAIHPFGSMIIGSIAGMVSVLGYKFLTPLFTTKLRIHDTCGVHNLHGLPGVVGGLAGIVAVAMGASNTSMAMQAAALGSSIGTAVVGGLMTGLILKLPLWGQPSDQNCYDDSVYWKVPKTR
UniProt Q969G6: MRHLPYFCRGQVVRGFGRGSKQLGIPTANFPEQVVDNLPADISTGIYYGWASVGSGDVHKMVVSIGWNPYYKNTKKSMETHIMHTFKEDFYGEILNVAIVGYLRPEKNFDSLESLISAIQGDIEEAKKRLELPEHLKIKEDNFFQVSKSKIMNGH
UniProt O00287: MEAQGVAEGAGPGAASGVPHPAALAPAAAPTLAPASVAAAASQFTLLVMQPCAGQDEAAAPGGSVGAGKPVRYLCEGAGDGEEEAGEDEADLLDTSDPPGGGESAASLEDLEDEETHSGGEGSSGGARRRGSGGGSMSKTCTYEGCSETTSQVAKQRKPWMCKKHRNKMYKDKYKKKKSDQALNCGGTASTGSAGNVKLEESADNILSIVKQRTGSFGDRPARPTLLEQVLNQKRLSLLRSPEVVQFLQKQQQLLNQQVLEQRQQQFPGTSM
UniProt Q14257: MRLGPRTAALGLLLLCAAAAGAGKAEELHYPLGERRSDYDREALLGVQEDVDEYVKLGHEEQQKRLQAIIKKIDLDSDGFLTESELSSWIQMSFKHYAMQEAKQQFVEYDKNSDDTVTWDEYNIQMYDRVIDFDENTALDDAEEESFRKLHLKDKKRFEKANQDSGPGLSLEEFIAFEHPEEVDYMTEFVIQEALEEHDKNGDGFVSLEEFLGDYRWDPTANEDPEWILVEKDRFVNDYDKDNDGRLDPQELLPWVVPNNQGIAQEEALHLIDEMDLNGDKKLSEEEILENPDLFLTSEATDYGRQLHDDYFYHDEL

How the values were obtained:
Experiment in all cases: log2 fold change, soluble protein after heating vs DMSO (PISA); higher = thermal stabilisation; K562 lysate, 10 uM; active = over 0.2 and 3.5 SD of the protein, either way, in both replicates (recomputed)
erlotinib = compound: C#Cc1cccc(Nc2ncnc3cc(OCCOC)c(OCCOC)cc23)c1 [erlotinib]
Outline: (§1)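 Pellets of K562 cells were dounce-homogenised in PBS pH 7.4 with 1 mM MgCl2, and the crude extract was held at 1 mg/mL protein for a 30 min treatment with 10 μM compound. Aliquots were heated for 3 min over 48°C-58°C and pooled before NP-40 was added to 0.5% at 4°C. The supernatant from 21,000xg for 90 min was quantified by TMTpro 16plex LC-MS/MS with channel sums equalised. Values are reported from duplicates as log-two fold change in thermal stability relative to solvent controls.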

[1] = compound: C/C(=N\NC(=O)C1=CC(=CC=C1)S(=O)(=O)N2CCOCC2)/C3=C(C=CC(=C3)Cl)O
Outline: as §1

[2] = compound: C1=CC(=CC=C1C2=NC3=C(N2)C=C(C=C3)C(=O)N)OC4=CC=C(C=C4)Cl
Outline: as §1

[3] = compound: C1=CC2=C(C=CC(=C2)/C=C\3/C(=O)NC(=NCC4=CC=CS4)S3)N=C1
Outline: as §1

[4] = compound: C1=CC2=NC=CN=C2C=C1/C=C/3\C(=O)NC(=O)S3
Outline: as §1

[5] = compound: C1=CC=C(C=C1)C2=NC(=C(N2)C3=CC=NC=C3)C4=CC(=C(C=C4)Cl)O
Outline: as §1

[6] = compound: C1=CC=C2C(=C1)C3=NNC4=CC=CC(=C43)C2=O
Outline: as §1

[7] = compound: C1CCN(C1)C(=O)NC2=CC=CC(=C2)NC3=NC=C(C(=N3)NCCC4=CN=CN4)Br
Outline: as §1

[8] = compound: C1CN(CCC1(CC2=CC=C(C=C2)Cl)N)C3=NC=NC4=C3C=CN4
Outline: as §1

IRAK-1-4 Inhibitor I = compound: C1COCCN1CCN2C3=CC=CC=C3N=C2NC(=O)C4=CC(=CC=C4)[N+](=O)[O-] [IRAK-1-4 Inhibitor I]
Outline: as §1

Measured: log2 fold change

RB1 (UniProt P06400)
inactive: erlotinib -0.043 | [1] 0.051 | [2] -0.013 | [3] -0.015 | [4] -0.015 | [5] 0.006 | [6] -0.026 | [7] -0.012 | [8] 0.012 | IRAK-1-4 Inhibitor I 0.008

RCN1 (UniProt Q15293)
inactive: erlotinib -0.026 | [1] -0.02 | [2] 0.057 | [3] 0.011 | [4] 0.019 | [5] 0.016 | [6] -0.032 | [7] 0.01 | [8] -0.018 | IRAK-1-4 Inhibitor I 0.009

RASA2 (UniProt Q15283)
inactive: erlotinib 0.016 | [1] -0.001 | [2] -0.054 | [3] -0.071 | [4] -0.028 | [5] 0.018 | [6] -0.069 | [7] -0.024 | [8] 0.028 | IRAK-1-4 Inhibitor I -0.003

RBM33 (UniProt Q96EV2)
inactive: erlotinib 0.013 | [1] 0.059 | [2] -0.007 | [3] 0.012 | [4] -0.036 | [5] -0.028 | [6] -0.044 | [7] -0.012 | [8] 0.015 | IRAK-1-4 Inhibitor I 0.031

RCC1L (UniProt Q96I51)
inactive: erlotinib -0.047 | [1] -0.085 | [2] 0.003 | [3] -0.159 | [4] 0.057 | [5] -0.015 | [6] -0.015 | [7] 0.039 | [8] -0.088 | IRAK-1-4 Inhibitor I -0.05

RBCK1 (UniProt Q9BYM8)
inactive: erlotinib 0.03 | [1] 0.063 | [2] 0.002 | [3] 0.052 | [4] 0.029 | [5] -0.052 | [6] -0.05 | [7] 0.024 | [8] -0.034 | IRAK-1-4 Inhibitor I 0.018

RBM26 isoform 2 (UniProt Q5T8P6)
inactive: erlotinib 0.016 | [1] 0.048 | [2] -0.033 | [3] 0.005 | [4] -0.02 | [5] 0.027 | [6] -0.013 | [7] -0.002 | [8] -0.005 | IRAK-1-4 Inhibitor I -0.008

RFX7 (UniProt Q2KHR2)
inactive: erlotinib -0.05 | [1] 0.007 | [2] -0.001 | [3] 0.095 | [4] 0.032 | [5] 0.027 | [6] 0.033 | [7] -0.04 | [8] 0.061 | IRAK-1-4 Inhibitor I 0.067

RECQL4 (UniProt O94761)
inactive: erlotinib -0.041 | [1] 0.023 | [2] -0.025 | [3] 0.195 | [4] -0.081 | [5] 0.018 | [6] -0.039 | [7] -0.035 | [8] 0.013 | IRAK-1-4 Inhibitor I 0.015

RBM27 (UniProt Q9P2N5)
inactive: erlotinib 0.009 | [1] -0.014 | [2] -0.009 | [3] -0.001 | [4] -0.003 | [5] 0.002 | [6] -0.009 | [7] -0.001 | [8] 0.018 | IRAK-1-4 Inhibitor I -0.008

RBM17 (UniProt Q96I25)
inactive: erlotinib -0.009 | [1] 0.024 | [2] 0.006 | [3] -0.011 | [4] -0.05 | [5] 0.039 | [6] -0.009 | [7] -0.006 | [8] 0.023 | IRAK-1-4 Inhibitor I -0.018

RBM10 isoform 5 (UniProt P98175)
inactive: erlotinib -0.018 | [1] -0.036 | [2] 0.005 | [3] -0.009 | [4] -0.068 | [5] 0.033 | [6] -0.018 | [7] -0.023 | [8] -0.02 | IRAK-1-4 Inhibitor I 0.003

RFFL (UniProt Q8WZ73)
inactive: erlotinib 0.065 | [1] 0.138 | [2] -0.068 | [3] -0.029 | [4] 0.029 | [5] 0.008 | [6] 0 | [7] -0.073 | [8] -0.031 | IRAK-1-4 Inhibitor I -0.121

RBM39 (UniProt Q14498)
inactive: erlotinib 0.053 | [1] -0.017 | [2] -0.074 | [3] 0.001 | [4] -0.102 | [5] -0.03 | [6] -0.015 | [7] -0.018 | [8] -0.013 | IRAK-1-4 Inhibitor I -0.078

RARS2 (UniProt Q5T160)
inactive: erlotinib 0.058 | [1] 0.03 | [2] 0.107 | [3] 0.027 | [4] -0.032 | [5] -0.088 | [6] -0.1 | [7] 0.032 | [8] -0.053 | IRAK-1-4 Inhibitor I 0.035

RBM8A (UniProt Q9Y5S9)
inactive: erlotinib -0.061 | [1] 0.035 | [2] -0.002 | [3] 0.069 | [4] -0.042 | [5] 0.029 | [6] 0.093 | [7] 0.086 | [8] -0.076 | IRAK-1-4 Inhibitor I -0.059

RCHY1 (UniProt Q96PM5)
inactive: erlotinib 0.048 | [1] -0.01 | [2] -0.014 | [3] 0.05 | [4] -0.005 | [5] 0.006 | [6] 0.03 | [7] -0.054 | [8] 0.006 | IRAK-1-4 Inhibitor I -0.051

RHAG (UniProt Q02094)
inactive: erlotinib 0.017 | [1] -0.123 | [2] -0.087 | [3] 0.086 | [4] -0.007 | [5] -0.012 | [6] -0.145 | [7] -0.126 | [8] -0.014 | IRAK-1-4 Inhibitor I 0.081

Taken from above (8 entries):
RECQL4 (UniProt O94761)
inactive: erlotinib -0.041 | [1] 0.023 | [2] -0.025 | [3] 0.195 | [4] -0.081 | [5] 0.018 | [6] -0.039 | [7] -0.035 | [8] 0.013 | IRAK-1-4 Inhibitor I 0.015

RBM27 (UniProt Q9P2N5)
inactive: erlotinib 0.009 | [1] -0.014 | [2] -0.009 | [3] -0.001 | [4] -0.003 | [5] 0.002 | [6] -0.009 | [7] -0.001 | [8] 0.018 | IRAK-1-4 Inhibitor I -0.008

RBM17 (UniProt Q96I25)
inactive: erlotinib -0.009 | [1] 0.024 | [2] 0.006 | [3] -0.011 | [4] -0.05 | [5] 0.039 | [6] -0.009 | [7] -0.006 | [8] 0.023 | IRAK-1-4 Inhibitor I -0.018

RBM10 isoform 5 (UniProt P98175)
inactive: erlotinib -0.018 | [1] -0.036 | [2] 0.005 | [3] -0.009 | [4] -0.068 | [5] 0.033 | [6] -0.018 | [7] -0.023 | [8] -0.02 | IRAK-1-4 Inhibitor I 0.003

RFFL (UniProt Q8WZ73)
inactive: erlotinib 0.065 | [1] 0.138 | [2] -0.068 | [3] -0.029 | [4] 0.029 | [5] 0.008 | [6] 0 | [7] -0.073 | [8] -0.031 | IRAK-1-4 Inhibitor I -0.121

RBM39 (UniProt Q14498)
inactive: erlotinib 0.053 | [1] -0.017 | [2] -0.074 | [3] 0.001 | [4] -0.102 | [5] -0.03 | [6] -0.015 | [7] -0.018 | [8] -0.013 | IRAK-1-4 Inhibitor I -0.078

RARS2 (UniProt Q5T160)
inactive: erlotinib 0.058 | [1] 0.03 | [2] 0.107 | [3] 0.027 | [4] -0.032 | [5] -0.088 | [6] -0.1 | [7] 0.032 | [8] -0.053 | IRAK-1-4 Inhibitor I 0.035

RBM8A (UniProt Q9Y5S9)
inactive: erlotinib -0.061 | [1] 0.035 | [2] -0.002 | [3] 0.069 | [4] -0.042 | [5] 0.029 | [6] 0.093 | [7] 0.086 | [8] -0.076 | IRAK-1-4 Inhibitor I -0.059

(continued)

REV1 (UniProt Q9UBZ9)
inactive: erlotinib -0.08 | [1] 0.008 | [2] -0.087 | [3] 0.011 | [4] -0.007 | [5] -0.02 | [6] 0.07 | [7] 0.021 | [8] -0.094 | IRAK-1-4 Inhibitor I -0.075

RENBP (UniProt P51606)
inactive: erlotinib -0.004 | [1] -0.006 | [2] -0.01 | [3] 0.001 | [4] 0.021 | [5] -0.032 | [6] 0.009 | [7] -0.011 | [8] 0.031 | IRAK-1-4 Inhibitor I 0.002

RFK (UniProt Q969G6)
inactive: erlotinib 0.003 | [1] 0.034 | [2] 0.032 | [3] -0.046 | [4] -0.071 | [5] -0.003 | [6] 0.077 | [7] 0.062 | [8] 0.073 | IRAK-1-4 Inhibitor I 0.028

RFXAP (UniProt O00287)
inactive: erlotinib -0.008 | [1] 0.003 | [2] 0.025 | [3] 0.054 | [4] 0.003 | [5] 0.002 | [6] 0.039 | [7] 0.031 | [8] 0.02 | IRAK-1-4 Inhibitor I 0.03

RB1CC1 (UniProt Q8TDY2)
inactive: erlotinib 0.008 | [1] -0.004 | [2] 0.008 | [3] 0 | [4] -0.013 | [5] -0.009 | [6] -0.05 | [7] 0.003 | [8] 0.031 | IRAK-1-4 Inhibitor I -0.007

RCN2 isoform 2 (UniProt Q14257)
inactive: erlotinib -0.055 | [1] 0.017 | [2] -0.035 | [3] 0.019 | [4] -0.015 | [5] 0.01 | [6] 0.007 | [7] 0.027 | [8] -0.042 | IRAK-1-4 Inhibitor I 0.022

RBX1 (UniProt P62877)
inactive: erlotinib -0.11 | [1] 0.301 | [2] 0.007 | [3] 0.036 | [4] 0.216 | [5] 0.03 | [6] 0.122 | [7] -0.008 | [8] 0.197 | IRAK-1-4 Inhibitor I 0.1

RBSN (UniProt Q9H1K0)
inactive: erlotinib -0.067 | [1] -0.215 | [2] 0.004 | [3] -0.014 | [4] -0.004 | [5] 0.005 | [6] 0.043 | [7] 0.015 | [8] 0.063 | IRAK-1-4 Inhibitor I 0.025

RFLNB (UniProt Q8N5W9)
inactive: erlotinib -0.109 | [1] -0.142 | [2] -0.087 | [3] 0.044 | [4] 0.094 | [5] -0.077 | [6] 0.001 | [7] 0.064 | [8] -0.008 | IRAK-1-4 Inhibitor I 0.141

RFX5 (UniProt P48382)
inactive: erlotinib -0.022 | [1] 0.085 | [2] 0.145 | [3] 0.006 | [4] -0.035 | [5] -0.038 | [6] -0.071 | [7] 0 | [8] -0.042 | IRAK-1-4 Inhibitor I -0.025

RCCD1 (UniProt A6NED2)
inactive: erlotinib 0.082 | [1] -0.097 | [2] 0.037 | [3] 0 | [4] -0.015 | [5] -0.076 | [6] 0.091 | [7] 0.067 | [8] 0.068 | IRAK-1-4 Inhibitor I -0.017
